The results are deposited in PubChem (AID1224904; Broad Institute, 2016).

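Control-channel Italica luciferase signal in doxycycline-induced 293T-iDUX4 cells, given as percent activity after a 24-hour treatment.
The test concentration is not given here.
Percent change in the Italica control signal; more negative values mean stronger inhibition, which points to nonspecific, tet-on or cytotoxic effects.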

Values are in %.
Common to all entries: measured here: Italica tet-on control reporter.
This is a side read-out of the assay, for part of the compounds, not drawn at random.

| structure | activity change (%) |
|---|---|
| `C[C@H](CO)N1C[C@H](C)[C@H](CN(C)C(=O)Nc2cccc(C(F)(F)F)c2)OCc2ccccc2-c2ccccc2C1=O` | -11.74 |
| `C/C=C/c1ccc([C@H]2[C@@H](CO)N3CCCCN(S(=O)(=O)c4ccc(F)cc4)C[C@@H]23)cc1` | -20.97 |
| `COc1cccc(CN2CCC3(CC2)CN(C(=O)C2CC2)[C@H](CO)c2[nH]c4cc(OC)ccc4c23)c1` | -69.52 |
| `O=C(C[C@@H]1CC[C@@H]2[C@H](COC[C@H](O)CN2C(=O)c2cc(Cl)cc(Cl)c2)O1)N1CCc2ccccc2C1` | -3.361 |
| `COc1ccc2c3c(n(C)c2c1)[C@@H](CO)N(Cc1ccccc1)CC31CN(CC2CC2)C1` | -12.03 |
| `COC(=O)C[C@H]1CC[C@H]2[C@@H](COc3ccc(NC(=O)Nc4cccc(C#N)c4)cc3C(=O)N2C)O1` | -16.79 |
| `COc1cccc(NC(=O)N2CC(=O)N3[C@@H](CO)[C@@H](c4ccc(C#CCC5CCCC5)cc4)[C@@H]3C2)c1` | -25.62 |
| `C[C@@H]1CN([C@H](C)CO)C(=O)c2ccccc2-c2ccccc2CO[C@@H]1CN(C)Cc1cccc(C(F)(F)F)c1` | 3.963 |
| `CN(C)CCCNC(=O)[C@H]1[C@H](CO)[C@H]2Cn3c(ccc(-c4cccnc4)c3=O)[C@@H]1N2C(=O)CC1CC1` | 6.48 |
| `C/C=C/c1ccc(C2[C@H]3CNC[C@@H]2N3Cc2cc(-c3ccccc3)on2)cc1` (stereo partly drawn) | -87.02 |
| `OC[C@@H]1Nc2ccc(C#Cc3ccccc3)cc2[C@@H]2[C@H]1CCN2Cc1nccs1` | -1.371 |
| `Cc1ccc(S(=O)(=O)Nc2ccc3c(c2)C(=O)N([C@@H](C)CO)C[C@H](C)[C@@H](CN(C)Cc2ccc4c(c2)OCO4)OCCCC[C@H](C)O3)cc1` | -18.81 |
| `C/C=C/c1ccc([C@H]2[C@H](CO)N(S(=O)(=O)Cc3ccccc3)C23CN(C(=O)C2CCCC2)C3)cc1` | -6.614 |
| `O=C(C[C@H]1C[C@H]2c3cc(NC(=O)C4CCOCC4)ccc3O[C@H]2[C@H](CO)O1)NCc1ccc(Oc2ccccc2)cc1` | -4.761 |
| `Cc1ccc(-c2ccc([C@@H]3[C@@H]4CN(Cc5ccccc5F)C[C@H]3N4)cc2)cc1` | -95.2 |
| `CC(C)CC#Cc1ccc([C@@H]2[C@H]3CN(C(=O)Cc4ccccc4)CC(=O)N3[C@H]2CO)cc1` | -11.44 |
| `CN1c2ccc(-c3ccccc3)cc2[C@H]2[C@H](CCN2S(=O)(=O)c2ccccc2F)[C@H]1CO` | -36.94 |
| `CCCNC(=O)N1[C@H](CO)[C@H](c2ccccc2-c2ccc(F)cc2)[C@@H]1C#N` | -30.85 |
| `O=C(Nc1cccc(F)c1)N1CCCCN2[C@H](CO)[C@@H](c3ccc(C#Cc4cccnc4)cc3)[C@H]2C1` | -26.93 |
| `C[C@H](CO)N1C[C@H](C)[C@@H](CN(C)C(=O)Cc2ccccc2)OCc2ccccc2-c2c(n(C)c3ccccc23)C1=O` | -7.979 |
| `CO[C@H]1CN(C)C(=O)c2ccc(NC(=O)Nc3ccc(C(F)(F)F)cc3)cc2OC[C@H](C)NC[C@H]1C` | -23.09 |
| `N#C[C@@H]1[C@H](c2ccccc2-c2ccccc2F)[C@H](CO)N1C(=O)Cc1ccccc1` | -12.81 |
| `Cc1cccc(S(=O)(=O)N2CC[C@@H]3[C@H]2c2cc(C#Cc4cccnc4)ccc2N[C@@H]3CO)c1` | -11.99 |
| `O=C(C[C@@H]1CC[C@@H]2[C@H](COC[C@H](O)CN2Cc2cccc(-c3ccncc3)c2)O1)N1CCN(c2ccccc2)CC1` | -45.88 |
| `O=C(C[C@@H]1CC[C@@H]2[C@H](COC[C@@H](O)CN2Cc2cc(F)ccc2F)O1)NCc1ccc(Oc2ccccc2)cc1` | -26.7 |
| `COc1ccccc1CN1C[C@@H](C)[C@H](OC)CN(C)C(=O)c2cc(NC(=O)Nc3ccccc3OC)ccc2OC[C@H]1C` | -9.816 |
| `COc1cccc(CN2CC3(CN(Cc4ccccn4)C3)c3c([nH]c4cc(OC)ccc34)[C@H]2CO)c1` | -11.16 |
| `COc1ccccc1C#Cc1ccc([C@H]2[C@@H](CO)N3CCCCN(C(=O)C4CCC4)C[C@@H]23)cc1` | 4.911 |
| `OC[C@@H]1[C@@H](c2ccc(-c3ccccc3F)cc2)[C@@H]2CN(Cc3cccnc3)CCCCN12` | -10.56 |
| `COCC(=O)N1CC2(CCN(Cc3ccc(Cl)cc3)CC2)c2c([nH]c3cc(OC)ccc23)[C@@H]1CO` | -67.66 |
| `O=C(C[C@H]1CC[C@@H]2[C@H](COC[C@H](O)CN2Cc2ccccc2F)O1)N1CCc2ccccc2C1` | -13.08 |
| `O=C(Nc1ccc(C(F)(F)F)cc1)Nc1ccc2c(c1)[C@@H]1C[C@H](CC(=O)N3CCc4ccccc4C3)O[C@@H](CO)[C@@H]1O2` | -48.43 |
| `COc1ccc(C#Cc2ccc([C@H]3[C@@H](CO)N4CCCCN(C(=O)Cc5ccccc5)C[C@@H]34)cc2)cc1` | -11 |
| `CCS(=O)(=O)N1CC2(CCN(Cc3cccc(OC)c3)CC2)c2c([nH]c3cc(OC)ccc23)[C@@H]1CO` | -46.8 |
| `COc1ccc(-c2ccc(C3[C@@H]4CN(S(=O)(=O)c5cccc(C)c5)C[C@H]3N4)cc2)cc1` (stereo partly drawn) | -22.55 |
| `CO[C@@H]1CN(C)C(=O)c2cc(NC(=O)C3CC3)ccc2OC[C@H](C)N(Cc2cc(F)ccc2F)C[C@H]1C` | -4.448 |
| `COc1ccccc1S(=O)(=O)N1CC[C@@H]2[C@@H](CO)Nc3ccc(-c4ccccc4F)cc3[C@@H]21` | -15.95 |
| `O=C(Nc1ccc(F)cc1)N1CCCCN2[C@H](CO)[C@@H](c3ccc(C#Cc4ccccc4)cc3)[C@@H]2C1` | -8.455 |
| `COc1ccc2c3c([nH]c2c1)[C@H](CO)N(S(C)(=O)=O)CC31CCN(Cc2cccc(F)c2)CC1` | -70.37 |
| `O=C(C[C@H]1CC[C@H]2[C@@H](COC[C@H](O)CN2C(=O)Nc2ccc(Cl)c(Cl)c2)O1)NCc1ccc(F)cc1` | -3.774 |
| `Cc1cccc(-c2ccc(C3[C@@H]4CN(C(=O)C5CCCCC5)C[C@H]3N4)cc2)c1` (stereo partly drawn) | 3.49 |
| `O=C(Nc1cccc(Cl)c1)N[C@H]1CC[C@@H](CCn2cc(Cc3ccccc3)nn2)O[C@H]1CO` | -6.761 |
| `C/C=C/c1ccc([C@H]2[C@@H](CO)N3C(=O)CN(S(=O)(=O)c4ccccc4)C[C@@H]23)cc1` | -12.81 |
| `O=C(c1ccccc1F)N1CC(=O)N2[C@@H](CO)[C@H](c3ccc(C#Cc4ccccc4)cc3)[C@@H]2C1` | -5.579 |
| `COc1cccc(S(=O)(=O)Nc2ccc3c(c2)[C@@H]2C[C@H](CC(=O)NCc4ccc(Cl)cc4)O[C@H](CO)[C@@H]2O3)c1` | -17.23 |
| `O=C(c1ccccc1)N1CC[C@@H]2[C@H]1c1cc(C#CC3CCCCC3)ccc1N[C@@H]2CO` | -0.5201 |
| `Cc1ccccc1-c1ccc(C2[C@@H]3CN(Cc4cncnc4)C[C@H]2N3)cc1` (stereo partly drawn) | -4.124 |
| `O=C(NCc1ccccc1)[C@H]1[C@H](CO)[C@H]2Cn3c(ccc(/C=C/c4ccccc4)c3=O)[C@@H]1N2CC1CC1` | -16.32 |
| `COc1cccc(NC(=O)Nc2ccc3c(c2)C(=O)N(C)C[C@H](OC)[C@@H](C)CN(CC2CC2)[C@@H](C)CO3)c1` | 3.138 |
| `CCC(=O)N1CCCCN2[C@H](CO)[C@H](c3ccc(-c4ccc(F)cc4)cc3)[C@@H]2C1` | -31.05 |
| `COc1cccc(-c2ccc([C@@H]3[C@H]4CN(S(=O)(=O)c5cn(C)cn5)CCCCN4[C@H]3CO)cc2)c1` | -16.3 |
| `O=C(Cc1ccccc1)N1CCCCN2[C@H](CO)[C@H](c3ccc(C#CC4(O)CCCC4)cc3)[C@@H]2C1` | -13.46 |
| `N#Cc1cccc(-c2ccc3c(c2)[C@H]2[C@H](CCN2C(=O)c2ccc4c(c2)OCO4)[C@@H](CO)N3)c1` | -29.68 |

Repeated from the top, 3 entries:

| structure | activity change (%) |
|---|---|
| `C[C@H](CO)N1C[C@H](C)[C@H](CN(C)C(=O)Nc2cccc(C(F)(F)F)c2)OCc2ccccc2-c2ccccc2C1=O` | -11.74 |
| `C/C=C/c1ccc([C@H]2[C@@H](CO)N3CCCCN(S(=O)(=O)c4ccc(F)cc4)C[C@@H]23)cc1` | -20.97 |
| `COc1cccc(CN2CCC3(CC2)CN(C(=O)C2CC2)[C@H](CO)c2[nH]c4cc(OC)ccc4c23)c1` | -69.52 |